Results are given in words; binding and its absence hold for the method and conditions named. A result given as binding can be weak or reduced; the word gives no strength.
Molecular target: T1, CCF-1 (CCR4 associated factor), deadenylase subunit of the CCR4-NOT complex (C. elegans) (UniProt Q17345)
T1 sequence: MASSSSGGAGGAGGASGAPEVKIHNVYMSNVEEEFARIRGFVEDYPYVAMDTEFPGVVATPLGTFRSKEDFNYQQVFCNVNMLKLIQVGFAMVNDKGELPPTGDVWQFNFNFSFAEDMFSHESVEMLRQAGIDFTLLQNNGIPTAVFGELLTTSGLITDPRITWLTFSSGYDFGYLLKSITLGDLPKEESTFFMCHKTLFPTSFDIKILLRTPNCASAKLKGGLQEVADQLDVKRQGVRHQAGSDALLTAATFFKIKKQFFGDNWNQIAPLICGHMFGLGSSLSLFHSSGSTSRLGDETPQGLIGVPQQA
Assay: two-hybrid

CCR4, catalytic subunit of the CCR4-NOT complex (C. elegans)
binding: binds

From paper doi:10.1101/2022.06.13.495535
